Test results as given in US20130130985A1 (priority 2010, published 2013).

Columns and labels:
[1] = general procedure: Boc solid-phase peptide synthesis; MBHA resin (0.6 mmol/g); PAM resin; HBTU (in situ neutralization); HBTU/DIEA; settings: late stage modification step
[2] = general procedure: Boc solid-phase peptide synthesis; MBHA resin (0.6 mmol/g); HBTU (in situ neutralization); HBTU/DIEA; settings: whole synthesis, scale 0.25 mmol; for isolated yield: overall

Substance | step yield [1] | isolated yield [2] | crude mass [2] | crude yield [2] | isolated mass [2]
CYIQNSec(pNA)PLG-NH2 | 40% yield |  |  |  | 
CYIQNSec(pNB)PLG-NH2 |  | 47% overall yield | 65 mg | 66% yield | 46 mg
Sec(Acm)YIQNCPLG-NH2 |  | 22% overall yield | 60 mg | 63% yield | 22 mg
